Here are results for 31 variants from the supplement of paper PMC7125110.

± gives the standard error. Many of these values have a large error. Some results are limits rather than exact numbers.

The chains are these.
B1: glmS ribozyme (parent)
chain: AUAAAAGCGCCAGAACUACAGAAAUGUAGUUGACGAGGAGGAGGUUUAUCGAAUUUUCGGCGGAUGCCUCCAAA

One data set covers variants of B1. In words: KM; higher = weaker cofactor use; RNA array. The settings on record: with glucosamine-6-phosphate. The method in brief: (§1)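 Glucosamine-6-phosphate (40 μM to 10 mM) in HEPES/KCl/Mg(OAc)2 buffer was flowed over sequenced MiSeq chips, and tiles were imaged over ~14 h. Barcoded ribozyme variants there had been transcribed in situ by E. coli RNA polymerase and were tracked through a hybridised Cy3 probe at 37 °C. One- or two-exponential decay fits to per-tile medians, normalised to baseline and to non-cleaving reference variants, gave kobs. kcat and KM came from weighted Michaelis–Menten fits across concentrations.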
Regarding AUAAAAGCGCCAGAACUACAGAAAUGUAGUAGACGAGGAGAAGGUUUAUCGAAUUUUCGGCGGAUGCCUCCAAA [U31A G41A], the KM was 1840 ± 1400 µM. On the same count and under the same terms, under AUAAAAGCGCCAGAACUACAGAAAUGUAUUUGACGAGGAGGAGGUUUAUCGAAUUUUCGGCGGAUGCCUACAAA [G29U C70A] stands 315 ± 190 µM; under AUAAAAGCGCCAGAACUACAGAAAUGUAGUAGACGAAGAGGAGGUUUAUCGAAUUUUCGGCGGAUGCCUCCAAA [U31A G37A], 1450 ± 840 µM. Take AUAAAAGCGCCAGAACUACAGAAAUGUACUUGACGAGGAGGAGGUUUAUCGAAGUUUCGGCGGAUGCCUCCAAA [G29C U54G]: the KM came out at 1090 ± 710 µM. Regarding AUAAAAGCGCCAGAAGUACAGAAAUGUAGUGGACGAGGAGGAGGUUUAUCGAAUUUUCGGCGGAUGCCUCCAAA [C16G U31G], the KM came out at 2360 ± 940 µM. On the same count and under the same terms, the result for AUAAAAGCGCCAGAACUACAGAAAUGUAGAUGUCGAGGAGGAGGUUUAUCGAAUUUUCGGCGGAUGCCUCCAAA [U30A A33U] reads 4010 ± 660 µM; that for AUAAAAGCGCCAGAACUACAGAAAUGUAUUUGACGAGGAGGAGGUUUAUUGAAUUUUCGGCGGAUGCCUCCAAA [G29U C50U], 3520 ± 700 µM; that for AUAAAAGCGCCAGAACUACAGAAAUGUACUUGACGAGGGGGAGGUUUAUCGAAUUUUCGGCGGAUGCCUCCAAA [G29C A39G], 3130 ± 1600 µM. As for AUAAAAGCGCCAGAACUACAGAAAUGUAGUCGACGAGGAGGAGGUUUAUCGAACUUUCGGCGGAUGCCUCCAAA [U31C U54C], the KM was determined as 3580 ± 1800 µM. Same read-out and setting: under AUAAAAGCGCCAGAACUACAGAAAUGUAGAUGACGAGGAGGAGGUUUAUCGAAUUUUCGGCGGGUGCCUCCAAA [U30A A64G] stands 1670 ± 240 µM; under AUAAAAGCGCCAGAAGUACAGAAAUGUAGUUGACGAGGAGGAGGUUUAUCGAAUUUUCGGCGGAUGCCUUCAAA [C16G C70U], 182 ± 110 µM; under AUAAAAGCGCCAGAACUACAGAAAUGUAGAUGACGAGGAGGAGGUUUCUCGAAUUUUCGGCGGAUGCCUCCAAA [U30A A48C], 12800 ± 1100 µM.

As for AUAAAAGCGCCAGAACUACAGAAAUGUAAUUGACGAGGAGGAGGUUUAUCGAAUUAUCGGCGGAUGCCUCCAAA [G29A U56A], the KM amounted to 4500 ± 2400 µM. With AUAAAAGCGCCAGAACUACAGAAAUGUACUUGACGAGGAGGAGGUUUAUCGAAUUUUCGGCGGAUGCCUCAAAA [G29C C71A], the KM stood at 326 ± 220 µM. On the same count and under the same terms, under AUAAAAGCGCCAGAACUACAGAAAUGUAAUUGACGAGGAGGAGGUUUAUCGAAUUUUCGGCGGAUUCCUCCAAA [G29A G66U] stands 2390 ± 2000 µM; under AUAAAAGCGCCAGAACUACAGAAAUGUAGGUAACGAGGAGGAGGUUUAUCGAAUUUUCGGCGGAUGCCUCCAAA [U30G G32A], 4720 ± 2300 µM.

Consider AUAAAAGCGCCAGAACUACAGAAAUGUAGUAGACGAGGAGGAGGUUUAUCGAAUUUUCGGCGGAUGCCUUCAAA [U31A C70U], for which the KM was 2180 ± 1300 µM. AUAAAAGCGCCAGAUCUACAGAAAUGUAGUUGACGAGGAUGAGGUUUAUCGAAUUUUCGGCGGAUGCCUCCAAA [A15U G40U]: the KM is 1170 ± 710 µM. For the variant AUAAAAGCGCCAGAACUACAGAAAUGUAGUCGACGAGGAGGAGGCUUAUCGAAUUUUCGGCGGAUGCCUCCAAA [U31C U45C], the KM was found to be 4690 ± 1600 µM.

Take AUAAAAGCGCCAGAACUACAGAAAUGUACUUGACGAGGACGAGGUUUAUCGAAUUUUCGGCGGAUGCCUCCAAA [G29C G40C]: the KM worked out at 1020 ± 150 µM. On to AUAAAAGCGCCAGAAUUACAGAAAUGUAGUUGACGAGGAGGAGGUUUAUCGAAUGUUCGGCGGAUGCUUCCAAA [C16U U55G C68U], for which the KM amounted to 507 ± 230 µM. As to AUAAAAGCGCCAGAACUACAGAAAUGUAAUUGACGAGGUGGAGGUUUAUCGAAUUUUCGGCGGAUGCCUCCAAA [G29A A39U], the KM worked out at 3440 ± 1600 µM. For AUAAAAGCGCCAGAUCUACAGAAAUGUAGUUGACGAGGAGGAGGUUUAGCGAAUUUUCGGCGGAUGCCUCCAAA [A15U U49G], the KM worked out at 1730 ± 470 µM. Same read-out and setting: under AUAAAAGCGCCAGAACUACAGAAAUGUAGUCGACGAGGAGGAGGUUUAUCGUAUUUUCGGCGUAUGCCGCCAAA [U31C A52U G63U U69G] stands 31 ± 28 µM; under AUAAAAGCGCCAGAAGUACAGAAAUGUAGUUGACGAGGAGGAGGUUUAUCGAUUUUUCGGCGGAUGCCUCCAAA [C16G A53U], 1910 ± 380 µM; under AUAAAAGCGCCAGAACUACAGAAAUGUAGGUGACGAGGAUGAGGUUUAUCGAAUUUUCGGCGGAUGCCUCCAAA [U30G G40U], 1610 ± 350 µM. AUAAAAGCGCCAGAACUACAGAAAUGUAGGUGACGAGGAGGAGGUUUAUCGAAUUUUCUGCGGAUGCCUCCAAA [U30G G59U]: the KM amounted to 933 ± 900 µM.

In the case of AUAAAAGCGCCAGAAUUACAGAAAUGUAGUUGACGAGGAGGAGGUUUAUCGAACUUUCGGCGGAUGCCCCCAAA [C16U U54C U69C], the KM was found to be 1980 ± 1500 µM. Regarding AUAAAAGCGCCAGAACUACAGACAUGUAGUUGACGAGGAGGAGGUUUAUCGAAUUUUCGGCGGAUGCCUCCAAA [A23C], the KM was 107 ± 110 µM. For the variant AUAAAAGCGCCAGAACUACAGAAAUGUAAUUGACGAGGAGGAGGUUAAUCGAAUUUUCGGCGGAUGCCUCCAAA [G29A U47A], the KM is 2600 ± 1600 µM. The same measure, in the same setting: under AUAAAAGCGCCAGAACUACAGAAAUGUAAUUGACGAGGAGGAGGUUCAUCGAAUUUUCGGCGGAUGCCUCCAAA [G29A U47C] stands 1400 ± 310 µM.

The variants in another data set derive from B1. In words: self-cleavage kobs at 160 uM GlcN6P; higher = faster cleavage; RNA array. The settings on record: with glucosamine-6-phosphate. The method in brief:
as §1
Turning to AUAAAAGCGCCAGAACUACAGAAAUGUAUUUGACGAGGAGGAGGUUUAUCGAAUUUUCGGCGGAUGCCUACAAA [G29U C70A], the “self-cleavage kobs at 160 uM GlcN6P” value amounted to 1.24e-05 ± 9.8e-06 s⁻¹. The same measure, in the same setting: under AUAAAAGCGCCAGAACUACAGAAAUGUACUUGACGAGGAGGAGGUUUAUCGAAUUUUCGGCGGAUGCCUCAAAA [G29C C71A] stands 5.2e-05 ± 2.7e-05 s⁻¹; under AUAAAAGCGCCAGAACUACAGAAAUGUAGUCGACGAGGAGGAGGCUUAUCGAAUUUUCGGCGGAUGCCUCCAAA [U31C U45C], 2.94e-05 ± 2e-05 s⁻¹.

In another data set the parent is B1. The data set is described as follows: self-cleavage kobs at 2500 uM GlcN6P; higher = faster cleavage; RNA array. The settings on record: with glucosamine-6-phosphate. The method in brief:
as §1
Turning to AUAAAAGCGCCAGAACUACAGAAAUGUAGAUGUCGAGGAGGAGGUUUAUCGAAUUUUCGGCGGAUGCCUCCAAA [U30A A33U], the “self-cleavage kobs at 2500 uM GlcN6P” value was 2.21e-05 ± 1.3e-05 s⁻¹. On the same count and under the same terms, under AUAAAAGCGCCAGAACUACAGAAAUGUAGAUGACGAGGAGGAGGUUUCUCGAAUUUUCGGCGGAUGCCUCCAAA [U30A A48C] stands 1.6e-05 ± 1.3e-05 s⁻¹.

The next data set covers variants of B1. The data set is described as follows: self-cleavage kobs at 10000 uM GlcN6P; higher = faster cleavage; RNA array. The settings on record: with glucosamine-6-phosphate. The method in brief: as §1
Take AUAAAAGCGCCAGAACUACAGAAAUGUAUUUGACGAGGAGGAGGUUUAUUGAAUUUUCGGCGGAUGCCUCCAAA [G29U C50U]: the “self-cleavage kobs at 10000 uM GlcN6P” value was less than 1e-05 s⁻¹.
